Results reported in PubChem BioAssay AID1347131 (National Center for Advancing Translational Sciences (NCATS), 2019).
Where “and” joins values, the source holds several entries; their conditions need not be identical. Equal values may be shown once. Among all 410,000 compounds or so, about 2,000 (0.49%) were called active. This list was built around the results that the source calls inconclusive (neither active nor inactive); the mix of calls is not that of the screen. The call rests on the fitted dose curve; tested in HEK293 reporter line. Potencies of inconclusive entries are doubtful fits and often do not repeat.
Potency means the concentration at half of the fitted maximal effect.

Test: qHTS Assay for Foot and Mouth Disease Virus Antivirals: Primary Screen against the MLPCN compound library; further: nearly all actives have a fitted effect of over 55% in size
Conditions: FMDV antiviral cell-based qHTS; activity, negative = inhibition: at 57.9 µM (top of the series)
For `COC(=O)c1sccc1NC(=O)CSc1ccccc1NS(=O)(=O)c1cc(Cl)ccc1Cl`, the Potency was inconclusive: 10 µM [inhibitor, partial curve].
With `CCCCOc1ccc(C(=O)OCC(=O)N2CCCCCC2)cc1` the Potency was inconclusive: 25.1 µM [inhibitor, partial curve, poor fit].
With `CCOc1ccc(CCNc2nc3c(c(=O)n(C)c(=O)n3C)n2CC)cc1OCC` the Potency was inconclusive: 2.24 µM [inhibitor, full curve].
For `CC1(C2CC2)NC(=O)N(CC(=O)N2CCN(c3cccc(C(F)(F)F)c3)CC2)C1=O` (configuration not stated), the Potency was inconclusive: 35.5 µM [inhibitor, single point].
In the case of `CC(C)(C)c1nnc(NC(=O)c2cc(-c3ccccc3)nc3ccccc23)s1`, the Potency is reported as inconclusive: 25.1 µM [inhibitor, partial curve, poor fit].
With `CCCSCCCNC(=O)Cn1nc(CC)n2c(cc3c(OC)cccc32)c1=O` the Potency was inconclusive: 15.8 µM [inhibitor, partial curve].
In the case of `N/C(=N\OC(=O)c1cccc(Br)c1)c1ccccn1`, the Potency is reported as inconclusive: 35.5 µM [inhibitor, single point].
With `COc1cc(N2C(=O)C=CC2=O)ccc1N1C(=O)C=CC1=O` the Potency was inconclusive: 31.6 µM [inhibitor, single point].
For `O=C(C(=Cc1ccccc1)CN1CCCCC1)c1ccccc1`, the Potency was inconclusive: 3.55 µM [inhibitor, full curve, poor fit].
For `Cc1cc(/C=C\c2ccc3cc(N(C)C)ccc3[n+]2C)c(C)n1-c1ccccc1`, the Potency was inconclusive: 20 µM [inhibitor, partial curve, poor fit].
For `Cc1cc(C(=O)Nc2nc3ccc(S(C)(=O)=O)cc3s2)c(C)o1`, the Potency was inconclusive: 39.8 µM [inhibitor, partial curve, poor fit].
For `C=CCn1c(=NC(=O)C2COc3ccccc3O2)sc2cc(S(N)(=O)=O)ccc21` (configuration not stated), the Potency was inconclusive: 31.6 µM [inhibitor, partial curve, poor fit].
With `O=C(Nc1ccc2c(c1)N(C1CCCC1)C(=O)c1ccccc1S2)c1ccc(F)cc1` the Potency was inconclusive: 6.31 µM [inhibitor, partial curve, poor fit].
With `COC(=O)/C(=C1/Oc2cc(C)oc(=O)c2S1)C(F)(F)F` the Potency was inconclusive: 28.2 µM [inhibitor, single point].
For `CC1Sc2ccc(S(=O)(=O)CCC(=O)N3CCN(c4cccc(Cl)c4)CC3)cc2NC1=O` (configuration not stated), the Potency was inconclusive: 25.1 µM [inhibitor, partial curve, poor fit].
For `CC(C)n1c(SCC(=O)Nc2nc3ccccc3s2)nc2c1c(=O)n(C)c(=O)n2C`, the Potency was inconclusive: 22.4 µM [inhibitor, partial curve, poor fit].
In the case of `Cc1cc(N/N=C\c2ccc(Br)cc2)nc(-n2nc(C)cc2C)n1`, the Potency is reported as inconclusive: 10 µM [inhibitor, partial curve, poor fit].
For `Cc1ccc2c(Cl)cc(Cl)c(OCC(=O)NC(C)(C)C)c2n1`, the activity, negative = inhibition was inconclusive: -37.4% [inhibitor].
In the case of `CCCCNc1c(-c2ccc(OC)c(SC(C)CC)c2)nc2ccc(C)cn12` (configuration not stated), the Potency is reported as inconclusive: 25.1 µM [inhibitor, partial curve, poor fit] and inconclusive: 31.6 µM [inhibitor, partial curve, poor fit].
In the case of `Cc1ccc(Cn2ccc(NC(=O)c3cc(-c4ccc(Cl)c(Cl)c4)on3)n2)cc1`, the Potency is reported as inconclusive: 2.24 µM [inhibitor, full curve].
With `CC(C)c1ccc(/C=N/Nc2ccc(C(=O)O)cc2)cc1` the “activity, negative = inhibition” value was inactive: -98.8%.
In the case of `CCN(c1ccccc1)S(=O)(=O)c1ccc(C(=O)Nc2ccccc2OC)cc1`, the Potency is reported as inconclusive: 20 µM [inhibitor, single point].
For `O=C(CSc1nnc(-c2ccncc2)n1Cc1ccco1)Nc1nc(-c2ccccc2)cs1`, the Potency was inconclusive: 17.8 µM [inhibitor, partial curve, poor fit].
With `CCOc1ccc(/C=C2\SC(=S)N(CCC(=O)O)C2=O)cc1` the Potency was inconclusive: 0.316 µM [inhibitor, full curve, poor fit].
In the case of `COc1ccc(CNC(=O)C[C@H]2C[C@H](C(=O)N(C(C)C)C(C)C)[C@@]3(C)c4[nH]c5ccc(Cl)cc5c4CCN3C2=O)cc1OC`, the “activity, negative = inhibition” value is reported as inactive: -38.9%.
With `COc1ccc(S(=O)(=O)N2Cc3ccccc3CC2C(=O)Nc2ccc(O)cc2)cc1OC` (configuration not stated) the Potency was inconclusive: 5.62 µM [inhibitor, partial curve].
For `O=C(Nc1ccc(C(=O)O)cc1)/C(=C\c1ccccc1)NC(=O)c1ccc(Br)cc1`, the activity, negative = inhibition was inconclusive: -30.1% [inhibitor].
With `Cc1ccc(/C=C2\C(=O)NC(=S)N(c3ccc(F)cc3)C2=O)o1` the Potency was inconclusive: 31.6 µM [inhibitor, partial curve, poor fit].
For `Cc1ccc(Cl)cc1NC(=O)C(=O)NCCc1sc(-c2ccc(F)cc2)nc1C`, the Potency was inconclusive: 1.41 µM [inhibitor, full curve].
In the case of `FC(F)Oc1ccc(-c2csc(Cc3nnc4n3CCCCC4)n2)cc1`, the activity, negative = inhibition is reported as inconclusive: -46.6% [inhibitor].
For `O=C(c1ccc2c(=O)n(CCc3ccccc3)c(=O)[nH]c2c1)N1CCN(c2ccc(Cl)cc2)CC1`, the Potency was inconclusive: 15.8 µM [inhibitor, partial curve, poor fit].
In the case of `CCC(CC)C(=O)c1c[nH]c(C(=O)NCc2ccccc2OC)c1`, the Potency is reported as inconclusive: 39.8 µM [inhibitor, partial curve, poor fit].
In the case of `CCOC(=O)C1CSC(CC(=O)Nc2ccc(Cl)c(Cl)c2)C(=O)N1` (configuration not stated), the Potency is reported as inconclusive: 35.5 µM [inhibitor, partial curve, poor fit].
With `COc1ccc(-n2c(-c3ccco3)nc3c(cnn3-c3ccc(C)cc3)c2=O)cc1` the Potency was inconclusive: 39.8 µM [inhibitor, partial curve, poor fit].
For `Cc1cccc(N2CCN(C(=O)C3CCN(c4nnc(-n5cccc5)s4)CC3)CC2C)c1` (configuration not stated), the Potency was inconclusive: 15.8 µM [inhibitor, partial curve, poor fit].
In the case of `Cc1cccc(CS(=O)(=O)c2ncc(Cl)c(C(=O)NCc3ccccc3)n2)c1`, the Potency is reported as inconclusive: 31.6 µM [inhibitor, partial curve, poor fit].
In the case of `Cc1c(CCOC(=O)C23CC4CC(CC(C)(C4)C2)C3)sc[n+]1Cc1ccccc1`, the Potency is reported as inconclusive: 15.8 µM [inhibitor, partial curve, poor fit].
For `CC(C)(C)c1ccc(-c2noc(CCC(=O)N3CCOCC3)n2)cc1`, the Potency was inconclusive: 35.5 µM [inhibitor, single point].
In the case of `O=C(Nc1nc2c(s1)CCCC2)c1ccc(Br)s1`, the Potency is reported as inconclusive: 25.1 µM [inhibitor, single point].
In the case of `CC(C)(C)C1C/C(=C/c2ccccn2)C(=O)/C(=C/c2ccccn2)C1` (configuration not stated), the Potency is reported as inconclusive: 3.55 µM [inhibitor, full curve, poor fit].
For `COc1ccccc1NC(=O)COC(=O)c1c[nH]c(=O)[nH]c1=O`, the Potency was inconclusive: 7.94 µM [inhibitor, partial curve, poor fit].
With `CCCC(=O)N1CCN(c2ccc(NC(=S)NC(=O)c3cccc(C)c3)cc2)CC1` the Potency was inconclusive: 15.8 µM [inhibitor, partial curve, poor fit].
For `COC(=O)C1=C(C(=O)OC)C(C(=O)OC)C(C(=O)OC)C(C(=O)OC)(C(=O)OC)C(C(=O)OC)=C1C(=O)OC` (configuration not stated), the Potency was inconclusive: 39.8 µM [inhibitor, partial curve, poor fit].
With `O=C(CC1C(=O)NCCN1C(=O)Nc1ccccc1)Nc1cccc(C(F)(F)F)c1` (configuration not stated) the Potency was inconclusive: 39.8 µM [inhibitor, single point].
For `COCCCNC(NC(=O)c1ccc(Cl)cc1)C(Cl)(Cl)Cl` (configuration not stated), the activity, negative = inhibition was inconclusive: -32.2% [inhibitor].
For `COC(=O)N1C(=O)[C@@](c2ccccc2)(C2CCCC2)N1C(=O)OC`, the Potency was inconclusive: 20 µM [inhibitor, partial curve, poor fit].
In the case of `Cc1cc(NC(=O)C2CCCC2)n(-c2nc3ccccc3[nH]2)n1`, the Potency is reported as inconclusive: 4.47 µM [inhibitor, full curve].
For `COc1cc(CN2CC(=O)N(c3ccccc3Cl)C2=S)cc(OC)c1OC`, the Potency was inconclusive: 31.6 µM [inhibitor, partial curve, poor fit].
With `COc1ccc(C2CC23N=C(c2ccccc2)OC3=O)cc1` (configuration not stated) the Potency was inconclusive: 22.4 µM [inhibitor, partial curve, poor fit].
With `O=C(Nc1cccc(S(=O)(=O)N2CCCCC2)c1)c1ccc(Cl)nc1` the Potency was inconclusive: 14.1 µM [inhibitor, partial curve, poor fit].
With `CCn1c2ccccc2c2cc(NC(=O)COc3ccc(C)c(C)c3)ccc21` the “activity, negative = inhibition” value was inactive: -31.2%.
For `COc1ccc2c(c1OC)C(=O)N1c3ccccc3C(=O)N(c3ccccc3F)C21` (configuration not stated), the “activity, negative = inhibition” value was inactive: -36.1%.
In the case of `COc1ccc2nc(NC(=S)N(C)C)sc2c1`, the Potency is reported as inconclusive: 15.8 µM [inhibitor, single point].
In the case of `O=C(NCC1CCN(Cc2ccccc2Cl)CC1)Nc1cccc(Cl)c1`, the Potency is reported as inconclusive: 8.91 µM [inhibitor, partial curve, poor fit].
With `Cn1c(COc2ccc(Br)cc2)nnc1SC1CCc2ccccc2C1=O` (configuration not stated) the Potency was inconclusive: 31.6 µM [inhibitor, partial curve, poor fit].
For `CCn1c(N2CCN(S(=O)(=O)c3ccccc3C(F)(F)F)CC2)nc2ccccc21`, the “activity, negative = inhibition” value was inactive: -46.9%.
In the case of `CCOC(=O)Cc1csc(NC(=O)COc2ccc(N(C)S(=O)(=O)c3ccc(C)cc3)cc2)n1`, the Potency is reported as inconclusive: 17.8 µM [inhibitor, partial curve, poor fit].
